Measured values taken from article PMC12670160, “A drug-repurposing screen of FDA- and EMA-approved drugs identifies two NF-κB inhibitors active against eumycetoma” (Journal of Antimicrobial Chemotherapy, 2025).
Counter-ions that a name gives are not always drawn. Like-named read-outs stand apart in the source and are kept apart here. The whole screen tested about 5,300 compounds, of which about 130 (2.5%) showed an effect of 50% or more. This is one part of the list.

Tested on: M. mycetomatis strain mm55
Conditions: 96 h, 2 µM
[1] = primary screen, metabolic activity vs growth control, inhibitor

Row | SMILES | % viability (m. mycetomatis hyphae) | % viability [1]
1 | CCN(C(C)=O)c1cccc(-c2ccnc3c(C#N)cnn23)c1 [ONC0004001, zaleplon] | 74.66% | 
2 | CN(C)NC(=O)CCC(=O)O [ONC0000066, daminozide] | 102.5% | 
3 | Cc1cccc(C)c1N=C1NCCCS1 [ONC0000628, xylazine] | 103.4% | 
4 | CN(C)CCNc1nc2cc(O)ccc2c2c1C(=O)c1ccccc1-2 [ONC0002255, tas103 dihydrochloride] | 114.4% | 
5 | C1CCC(NC2CCCCC2)CC1 [ONC0002909, dicyclohexylamine] | 81.67% | 
6 | OC1(c2ccc(Cl)cc2)c2ccccc2C2=NCCN21 (stereo not drawn) [ONC0005297, mazindol] | 110.5% | 
7 | C[C@]12CCC(=O)C=C1CC[C@@H]1[C@@H]2C(=O)C[C@]2(C)C(=O)CC[C@@H]12 [ONC0001042, adrenosterone] | 82.56% | 
8 | CC(N)Cc1cccc(O)c1 (stereo not drawn) [ONC0002604, gepefrine] | 85.86% | 
9 | CC(C)C[C@H](CN)CC(=O)O [ONC0004046, pregabalin] | 71.03% | 
10 | CC[C@H]1[C@@H]2C[C@H]3[C@@H]4N(C)c5ccccc5[C@]45C[C@@H]([C@H]2[C@H]5O)N3[C@@H]1O [ONC0003392, ajmaline] |  | 69.14%
11 | OCC(Br)(Br)Br [ONC0003374, 222tribromoethanol] | 70.94% | 
12 | C[C@]12Cc3c[nH]nc3C[C@@H]1CC[C@@H]1[C@@H]2CC[C@@]2(C)[C@H]1CC[C@]2(C)O [ONC0002121, stanozolol] | 96.32% | 
13 | O=C(O)C(F)(F)C(F)(F)C(F)(F)C(F)(F)C(F)(F)C(F)(F)C(F)(F)F [ONC0004483, pentadecafluorooctanoic acid] | 100.8% | 
14 | Cc1cc(C(=O)CN2CCCC2)c(C)n1-c1ccc(F)cc1 [ONC0005142, iu1] | 96.41% | 
15 | C[C@@]12N[C@@H](Cc3ccccc31)c1ccccc12 [ONC0002573, dizocilpine maleate] | 62.56% | 
16 | C[C@H](N)C(=O)NCC(=O)N[C@H]1CSSC[C@@H](C(=O)O)NC(=O)[C@H](CO)NC(=O)[C@H]([C@@H](C)O)NC(=O)[C@H](Cc2ccccc2)NC(=O)[C@H]([C@@H](C)O)NC(=O)[C@H](CCCCN)NC(=O)[C@H](Cc2c[nH]c3ccccc23)NC(=O)[C@H](Cc2ccccc2)NC(=O)[C@H](Cc2ccccc2)NC(=O)[C@H](CC(N)=O)NC(=O)[C@H](CCCCN)NC1=O [ONC0001935, somatostatin] | 65.38% | 
17 | NCc1cc(=O)[nH]o1 [ONC0000178, muscimol] | 77.49% | 
18 | CC(=O)[C@H]1CC[C@H]2[C@@H]3CC[C@@H]4C[C@H](O)CC[C@]4(C)[C@H]3CC[C@]12C [ONC0001671, allopregnanolone] | 102.1% | 
19 | COC(=O)C(c1ccccc1)C1CCCCN1 (stereo not drawn) [ONC0003968, methylphenidate hydrochloride] | 55.87% | 
20 | CCOC(=O)c1ccccc1OC(N)=O [ONC0003220, ethyl2carbamoyloxybenzoate] | 78.7% | 

An excerpt from above in order of SMILES length, smallest number first:
Row | SMILES | % viability (m. mycetomatis hyphae) | % viability [1]
2 | CN(C)NC(=O)CCC(=O)O [ONC0000066, daminozide] | 102.5% | 
3 | Cc1cccc(C)c1N=C1NCCCS1 [ONC0000628, xylazine] | 103.4% | 
19 | COC(=O)C(c1ccccc1)C1CCCCN1 (stereo not drawn) [ONC0003968, methylphenidate hydrochloride] | 55.87% | 

(continued)

Row | SMILES | % viability (m. mycetomatis hyphae) | % viability [1]
21 | CN1C2C=C(c3sccc3Br)CC1CC2 (stereo not drawn) [ONC0000153, ns3861] | 72.45% | 
22 | COc1cc(Br)c(Nc2nc(-c3c(C)nc4ncccn34)cs2)c(Br)c1 [ONC0004411, ptc209] | 113.4% | 
23 | COC(=O)C1=C(C)NC(C)=C(C(=O)OCCCN2CCC(c3ccccc3)(c3ccccc3)CC2)[C@@H]1c1cccc([N+](=O)[O-])c1 [ONC0000198, dexniguldipine] | 76.6% | 
24 | O=c1[nH]c(=O)n(Cl)c(=O)n1Cl [ONC0005487, troclosene sodium] | 96.21% | 
25 | CS(=O)(=O)CS(=O)(=O)OCCCl [ONC0005355, clomesone] | 92.35% | 
26 | COc1ccc(C(=O)c2c(C)n(CCN3CCOCC3)c3cc(I)ccc23)cc1 [ONC0003455, am630 iodopravadoline] | 49.32% | 
27 | O=P1(NCCCl)OCCCN1CCCl (stereo not drawn) [ONC0003997, ifosfamide] | 56.09% | 
28 | Oc1ccc2c3c1O[C@H]1c4oc5ccccc5c4C[C@@]4(O)[C@@H](C2)N(CC2CC2)CC[C@]314 [ONC0001439, naltriben] | 49.95% | 
29 | CCCCC/C=C\C/C=C\C/C=C\C/C=C\CCCC(=O)Nc1ccc(O)cc1 [ONC0000209, am404] | 63.87% | 
30 | O=C1CC2OCC=C3CN4CC[C@]56c7ccccc7N1C5[C@H]2[C@H]3CC46 (stereo partly drawn) [ONC0003403, strychnine sulfate] | 68.79% | 
31 | N#Cc1ccccc1-c1cc(-c2ccccn2)cn(-c2ccccc2)c1=O [ONC0001116, perampanel] | 62.98% | 
32 | O=C(Oc1ccc([N+](=O)[O-])cc1)N1CCC(C(O)(c2ccc3c(c2)OCO3)c2ccc3c(c2)OCO3)CC1 [ONC0004330, jzl184] | 83.24% | 
33 | C=C1[C@@H](C)[C@H]2[C@H](Cc3ccccc3)NC(=O)[C@]23OC(=O)/C=C/[C@H](O)CCC[C@@H](C)C/C=C/[C@H]3[C@@H]1O [ONC0005534, cytochalasin b] |  | 102.9%
34 | NC(=O)C[S+]([O-])C(c1ccccc1)c1ccccc1 (stereo not drawn) [ONC0003965, modafinil] | 69.84% | 
35 | N=CNc1ccc2[nH]c3c(c2c1)C[C@@]1(O)C2Cc4ccc(O)c5c4[C@@]1(CCN2CC1CC1)[C@H]3O5 [ONC0000051, gnti] | 53.25% | 
36 | Oc1ncc(N(CCCl)CCCl)c(O)n1 [ONC0005606, uracilmustard] | 90.14% | 
37 | Clc1ccccc1C(c1ccccc1)(c1ccccc1)n1cccn1 [ONC0001139, tram34] | 85.9% | 
38 | C=C[C@H]1C[N@]2CC[C@H]1C[C@@H]2[C@@H](OC(=O)OCC)c1ccnc2ccc(OC)cc12 [ONC0003281, quinine ethyl carbonate] | 97.38% | 
39 | CN1[C@@H]2CC[C@H]1C[C@@H](OC1c3ccccc3CCc3ccccc31)C2 [ONC0002966, deptropine] |  | 88.93%
